Assay results: patent US6656923B1, “Uncomplexed cyclodextrin compositions for odor and wrinkle control” (The Procter & Gamble Company, priority 1997, dated 2003)
Some results were stated once for a whole list of compounds, not compound by compound. For part of these data: For at least one compound, name, drawing or mass did not settle the structure.

Experiments:
[1] = cited from earlier work
[2] = effect of cyclodextrin on the surface tension of surfactant solutions; format: physicochemical; details: in the presence of a typical cyclodextrin like hydroxypropyl-beta-cyclodextrin and methylated beta-cyclodextrin

For `Cn1sc2c(c1=O)CCC2` [Promexal, 2-methyl-4,5-trimethylene-4-isothiazolin-3-one], the “stability over a wide pH range” value [1] is listed as 4-12 pH.
For `CCCCCCCCCCCCOS(=O)(=O)[O-].[Na+]` [sodium dodecyl sulfate], the “elevation in surface tension” value [2] was over 10%.
For dodecanolpoly(6)ethoxylate, the “elevation in surface tension” value [2] was over 10%.
